Assay [1] concerns the target Cav3.1 channel, endogenous in rat brain (rat (endogenous in brain)) (UniProt O54898). In words: co-IP; lysates of rat brain; data not shown.
The target of assay [2] is Cav3.3 channel, endogenous in rat brain (rat (endogenous in brain)) (UniProt Q9Z0Y8). In words: co-IP; lysates of rat brain; data not shown.
Assay [3] addresses Cav3.2 protein, endogenous in rat brain (rat (endogenous in brain)) (UniProt Q9EQ60). In words: co-IP; lysates of rat whole brain, cerebellum and brain stem (pontine region); lysis in 50 mM Tris, 150 mM NaCl, 1% NP-40, 0.5% Na deoxycholate, 0.5% Triton X-100, pH 7.5; precipitated with anti-Cav3.2 and Protein A/G beads; blots probed with anti-KCa1.1; control without precipitating antibody.

By UniProt entry, the sequences of proteins in these tests, tags left out.
UniProt O54898: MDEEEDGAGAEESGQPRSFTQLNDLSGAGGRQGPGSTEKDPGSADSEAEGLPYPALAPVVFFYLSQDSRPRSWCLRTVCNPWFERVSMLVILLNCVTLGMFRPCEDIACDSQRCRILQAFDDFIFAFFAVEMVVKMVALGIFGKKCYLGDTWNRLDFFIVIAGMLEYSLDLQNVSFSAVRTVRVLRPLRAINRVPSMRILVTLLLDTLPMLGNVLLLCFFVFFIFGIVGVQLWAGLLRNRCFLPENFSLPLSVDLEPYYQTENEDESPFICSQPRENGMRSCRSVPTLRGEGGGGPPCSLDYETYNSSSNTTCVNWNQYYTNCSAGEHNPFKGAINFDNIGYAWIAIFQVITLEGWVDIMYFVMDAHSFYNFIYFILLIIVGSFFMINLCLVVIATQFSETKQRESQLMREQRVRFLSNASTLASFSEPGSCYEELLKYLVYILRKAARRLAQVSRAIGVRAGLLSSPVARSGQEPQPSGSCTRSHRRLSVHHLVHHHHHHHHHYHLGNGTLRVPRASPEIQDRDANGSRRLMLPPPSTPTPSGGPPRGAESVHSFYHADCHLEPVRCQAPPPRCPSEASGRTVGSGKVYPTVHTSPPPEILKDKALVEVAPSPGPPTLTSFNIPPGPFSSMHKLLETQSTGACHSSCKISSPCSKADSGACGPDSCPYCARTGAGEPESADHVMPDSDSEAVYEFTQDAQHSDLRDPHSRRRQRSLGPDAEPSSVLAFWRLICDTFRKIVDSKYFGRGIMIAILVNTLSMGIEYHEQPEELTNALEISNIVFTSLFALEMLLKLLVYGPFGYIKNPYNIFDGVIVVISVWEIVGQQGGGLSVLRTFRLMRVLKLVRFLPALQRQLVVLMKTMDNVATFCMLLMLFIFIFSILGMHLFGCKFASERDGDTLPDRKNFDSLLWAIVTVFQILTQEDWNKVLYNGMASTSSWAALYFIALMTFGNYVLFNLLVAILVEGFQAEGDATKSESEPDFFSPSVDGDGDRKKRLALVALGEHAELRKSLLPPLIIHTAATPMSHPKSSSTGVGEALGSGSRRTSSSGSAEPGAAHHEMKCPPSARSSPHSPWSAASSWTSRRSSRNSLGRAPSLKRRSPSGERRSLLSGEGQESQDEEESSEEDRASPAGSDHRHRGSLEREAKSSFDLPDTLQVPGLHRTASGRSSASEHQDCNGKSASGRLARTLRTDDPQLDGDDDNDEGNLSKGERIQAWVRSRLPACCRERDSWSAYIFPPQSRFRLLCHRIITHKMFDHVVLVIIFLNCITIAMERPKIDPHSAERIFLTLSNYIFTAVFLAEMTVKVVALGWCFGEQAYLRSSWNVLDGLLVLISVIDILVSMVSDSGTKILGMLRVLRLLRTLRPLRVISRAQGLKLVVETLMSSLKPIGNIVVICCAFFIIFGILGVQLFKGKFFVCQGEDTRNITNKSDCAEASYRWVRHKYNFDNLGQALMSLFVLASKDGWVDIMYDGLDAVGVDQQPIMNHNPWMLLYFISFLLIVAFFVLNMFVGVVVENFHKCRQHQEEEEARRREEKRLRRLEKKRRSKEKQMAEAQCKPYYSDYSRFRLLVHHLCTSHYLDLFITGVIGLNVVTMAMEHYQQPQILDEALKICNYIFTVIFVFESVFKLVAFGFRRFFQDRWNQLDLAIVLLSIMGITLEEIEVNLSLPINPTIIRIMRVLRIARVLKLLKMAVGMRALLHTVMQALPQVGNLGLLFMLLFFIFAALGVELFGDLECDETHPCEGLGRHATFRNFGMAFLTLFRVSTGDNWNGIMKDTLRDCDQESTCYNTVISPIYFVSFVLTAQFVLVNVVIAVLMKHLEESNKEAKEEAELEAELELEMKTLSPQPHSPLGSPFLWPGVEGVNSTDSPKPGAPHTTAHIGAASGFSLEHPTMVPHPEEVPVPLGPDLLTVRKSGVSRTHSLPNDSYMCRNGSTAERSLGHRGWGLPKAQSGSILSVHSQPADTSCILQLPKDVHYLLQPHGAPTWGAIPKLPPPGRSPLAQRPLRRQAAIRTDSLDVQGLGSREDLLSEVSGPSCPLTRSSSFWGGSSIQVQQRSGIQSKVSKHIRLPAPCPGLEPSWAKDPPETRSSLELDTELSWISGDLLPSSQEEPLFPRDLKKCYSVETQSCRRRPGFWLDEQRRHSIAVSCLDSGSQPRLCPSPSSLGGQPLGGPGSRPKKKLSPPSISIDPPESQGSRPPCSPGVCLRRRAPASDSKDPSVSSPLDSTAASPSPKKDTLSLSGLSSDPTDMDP
UniProt Q9Z0Y8: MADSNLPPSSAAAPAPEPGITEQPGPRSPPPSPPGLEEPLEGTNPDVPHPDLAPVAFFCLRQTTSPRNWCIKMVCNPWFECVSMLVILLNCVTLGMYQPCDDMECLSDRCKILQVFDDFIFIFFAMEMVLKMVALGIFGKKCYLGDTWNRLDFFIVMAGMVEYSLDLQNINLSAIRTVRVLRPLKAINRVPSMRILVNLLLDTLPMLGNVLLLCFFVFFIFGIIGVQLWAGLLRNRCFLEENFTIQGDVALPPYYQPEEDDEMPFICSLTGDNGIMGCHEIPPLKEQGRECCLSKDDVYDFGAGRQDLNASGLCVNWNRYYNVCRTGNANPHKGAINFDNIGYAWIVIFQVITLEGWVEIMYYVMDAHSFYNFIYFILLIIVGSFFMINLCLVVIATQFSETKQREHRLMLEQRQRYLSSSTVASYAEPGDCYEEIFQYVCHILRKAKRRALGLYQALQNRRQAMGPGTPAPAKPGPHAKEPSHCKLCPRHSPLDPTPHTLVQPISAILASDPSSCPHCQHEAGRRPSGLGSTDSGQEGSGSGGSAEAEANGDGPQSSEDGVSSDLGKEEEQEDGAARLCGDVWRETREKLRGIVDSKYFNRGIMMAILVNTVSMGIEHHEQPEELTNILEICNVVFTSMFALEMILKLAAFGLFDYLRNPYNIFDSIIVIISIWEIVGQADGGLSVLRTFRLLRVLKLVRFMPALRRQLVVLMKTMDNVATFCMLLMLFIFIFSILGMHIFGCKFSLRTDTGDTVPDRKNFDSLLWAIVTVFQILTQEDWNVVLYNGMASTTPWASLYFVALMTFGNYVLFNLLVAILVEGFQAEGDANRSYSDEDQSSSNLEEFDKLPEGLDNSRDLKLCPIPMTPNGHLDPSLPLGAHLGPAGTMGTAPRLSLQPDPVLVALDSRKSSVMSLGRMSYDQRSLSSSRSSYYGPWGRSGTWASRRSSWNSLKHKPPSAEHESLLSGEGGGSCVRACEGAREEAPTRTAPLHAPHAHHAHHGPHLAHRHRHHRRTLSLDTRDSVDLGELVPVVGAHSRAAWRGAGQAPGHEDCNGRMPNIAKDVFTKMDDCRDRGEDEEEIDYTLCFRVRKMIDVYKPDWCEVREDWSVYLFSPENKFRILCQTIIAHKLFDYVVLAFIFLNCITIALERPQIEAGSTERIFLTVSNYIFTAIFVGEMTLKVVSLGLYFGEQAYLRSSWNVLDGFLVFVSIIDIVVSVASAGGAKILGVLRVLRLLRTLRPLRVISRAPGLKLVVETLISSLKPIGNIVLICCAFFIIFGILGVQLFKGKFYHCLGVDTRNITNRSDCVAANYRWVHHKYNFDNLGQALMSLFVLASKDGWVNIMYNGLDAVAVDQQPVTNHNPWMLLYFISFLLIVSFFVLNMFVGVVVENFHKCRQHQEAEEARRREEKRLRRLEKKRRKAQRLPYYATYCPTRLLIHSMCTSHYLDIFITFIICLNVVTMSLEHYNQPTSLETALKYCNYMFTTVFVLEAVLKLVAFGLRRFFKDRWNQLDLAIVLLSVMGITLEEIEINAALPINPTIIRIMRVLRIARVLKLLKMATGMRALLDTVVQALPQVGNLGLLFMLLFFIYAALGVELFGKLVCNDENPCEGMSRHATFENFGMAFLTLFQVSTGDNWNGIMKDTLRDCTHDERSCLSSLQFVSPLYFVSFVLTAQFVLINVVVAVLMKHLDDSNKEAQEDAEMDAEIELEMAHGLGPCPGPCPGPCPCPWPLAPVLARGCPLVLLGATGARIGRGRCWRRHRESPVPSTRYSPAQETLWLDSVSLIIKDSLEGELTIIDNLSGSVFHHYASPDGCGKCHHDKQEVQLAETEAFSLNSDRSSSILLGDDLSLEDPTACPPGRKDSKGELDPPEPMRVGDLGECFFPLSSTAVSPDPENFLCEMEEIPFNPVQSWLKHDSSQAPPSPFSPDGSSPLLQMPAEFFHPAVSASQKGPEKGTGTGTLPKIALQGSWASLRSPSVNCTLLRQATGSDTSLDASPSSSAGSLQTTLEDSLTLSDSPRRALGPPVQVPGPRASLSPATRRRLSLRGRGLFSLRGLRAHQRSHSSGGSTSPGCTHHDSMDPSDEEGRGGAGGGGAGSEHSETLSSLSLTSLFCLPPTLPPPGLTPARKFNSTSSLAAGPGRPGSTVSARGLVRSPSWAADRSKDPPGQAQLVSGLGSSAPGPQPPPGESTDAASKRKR
UniProt Q62976: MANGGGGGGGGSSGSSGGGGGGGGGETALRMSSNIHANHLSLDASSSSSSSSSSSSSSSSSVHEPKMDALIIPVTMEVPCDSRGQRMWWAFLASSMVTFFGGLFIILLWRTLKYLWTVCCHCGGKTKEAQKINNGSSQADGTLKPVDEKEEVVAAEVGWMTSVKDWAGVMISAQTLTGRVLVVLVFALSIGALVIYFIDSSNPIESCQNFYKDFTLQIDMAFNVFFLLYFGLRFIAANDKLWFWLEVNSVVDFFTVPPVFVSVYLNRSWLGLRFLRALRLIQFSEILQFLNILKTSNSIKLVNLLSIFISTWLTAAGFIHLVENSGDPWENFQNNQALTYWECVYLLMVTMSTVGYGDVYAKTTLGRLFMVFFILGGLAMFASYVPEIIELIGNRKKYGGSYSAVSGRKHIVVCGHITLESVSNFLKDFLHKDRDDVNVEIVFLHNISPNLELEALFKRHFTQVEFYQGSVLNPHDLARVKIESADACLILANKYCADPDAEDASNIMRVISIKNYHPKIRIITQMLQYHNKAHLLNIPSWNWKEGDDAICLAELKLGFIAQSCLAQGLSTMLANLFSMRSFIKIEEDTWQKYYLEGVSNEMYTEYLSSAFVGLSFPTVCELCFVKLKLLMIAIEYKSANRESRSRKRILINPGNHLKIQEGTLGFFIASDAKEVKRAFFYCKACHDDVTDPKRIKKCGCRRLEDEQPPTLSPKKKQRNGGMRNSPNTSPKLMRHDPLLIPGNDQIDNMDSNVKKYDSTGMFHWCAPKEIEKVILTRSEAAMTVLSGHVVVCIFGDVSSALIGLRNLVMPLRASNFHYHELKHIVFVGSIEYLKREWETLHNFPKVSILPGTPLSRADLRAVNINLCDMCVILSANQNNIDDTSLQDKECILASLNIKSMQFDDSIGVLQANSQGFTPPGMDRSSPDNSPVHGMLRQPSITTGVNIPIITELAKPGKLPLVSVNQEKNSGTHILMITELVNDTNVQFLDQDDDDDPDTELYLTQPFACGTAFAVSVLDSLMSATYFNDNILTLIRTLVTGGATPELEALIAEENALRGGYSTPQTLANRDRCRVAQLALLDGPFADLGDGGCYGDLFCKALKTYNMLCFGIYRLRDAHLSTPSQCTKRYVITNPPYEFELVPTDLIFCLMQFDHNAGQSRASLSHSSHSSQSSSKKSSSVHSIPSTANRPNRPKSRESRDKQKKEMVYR

Assay [4] concerns the target Cav3.2 calcium channel α-subunit, full length, human (human) (UniProt O95180). In words: co-IP; tsA-201 cells co-expressing KCa1.1 and Cav3.2 with either β2 or β4 subunits; data not shown.
Assay [5] shares this target. In words: co-IP; lysates of tsA-201 cells co-expressing Cav3.2 and myc-tagged KCa1.1 constructs; lysis in 50 mM Tris, 150 mM NaCl, 1% NP-40, 0.5% Na deoxycholate, 0.5% Triton X-100, pH 7.5; precipitated with polyclonal anti-Cav3.2 and Protein A/G beads; blots probed with anti-myc; bead only control.

No constants are given. Whether binding was seen depends on the method and setting. In cells and extracts the contact can be indirect. Some results given as binding are weak or reduced against the parent protein; the word gives no strength.

For the substance “KCa1.1 protein, endogenous in rat brain (from UniProt Q62976 1-1209)”, the binding result in assay [1], in assay [2] and in assay [3] was “binds” in each case.
With “KCa1.1 potassium channel α-subunit, full length, myc-tagged, human (from UniProt Q12791 1-1236)”, the binding result in assay [4] and in assay [5] was “binds” in each case.

The values above are taken from paper PMC3633930.
